# According to the supplement of paper PMC3334620:
# The full ranking holds about 33,000 sequences; the median of “E-score (-0.5 to 0.5)” is about -0.0034, and the highest 2% start at about 0.25. The list shows a part of the results.
# Biological target: T1, Yap3 (UniProt P38749)
# T1 sequence: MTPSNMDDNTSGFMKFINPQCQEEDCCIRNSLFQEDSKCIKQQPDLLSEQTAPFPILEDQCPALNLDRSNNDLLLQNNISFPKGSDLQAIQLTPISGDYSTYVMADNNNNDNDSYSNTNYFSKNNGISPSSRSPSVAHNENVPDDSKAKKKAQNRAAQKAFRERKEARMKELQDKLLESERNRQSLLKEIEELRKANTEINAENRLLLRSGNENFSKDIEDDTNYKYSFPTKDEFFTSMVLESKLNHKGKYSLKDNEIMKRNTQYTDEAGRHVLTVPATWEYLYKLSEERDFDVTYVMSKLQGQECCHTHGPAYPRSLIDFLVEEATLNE
# Assay: PBM E-score (8-mer binding enrichment) (E-score (-0.5 to 0.5)); higher = stronger / more preferred TF binding
# Conditions: protein concentration: 100 nM; construct: GST-full length
# Outline: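 Each ungapped eight-base word and its reverse complement, pooled, received an E-score from the Universal PBM Analysis Suite. Underlying scans, normalised with masliner, recorded fluorescent anti-GST bound to GST-tagged yeast transcription factors. These were applied at about 100-200 nM to universal all-10-mer Agilent arrays double-stranded by primer extension.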
row,Sequence,PBM E-score
1,CATCGTGA,-0.283
2,ATAGTGGA,0.0987
3,CGTTCGTC,0.0566
4,CTGTGAAC,-0.1
5,CTTTAGCC,-0.0274
6,GGCCCCTA,-0.332
7,CCCTTATC,-0.108
8,TAGGTCGA,0.12
9,GACAACGA,0.133
10,ATCAATAC,0.11
11,GAGATGCC,-0.0438
12,ACTCACTA,0.103
13,ATCGGCAG,-0.0334
14,ATACAACA,0.149
15,GTAGGCTA,-0.137
16,AGAGCTCC,-0.275
17,ACAAACGG,0.0995
18,ACCAACGT,0.0635
19,CGTGAAGC,-0.116
20,TGAGGAAA,0.0752
21,AAGCGCGT,0.138
22,ACATTCGC,-0.0124
23,AAGAGTAG,-0.0109
24,AAGTGGGT,0.0584
25,ACCGGTCT,-0.27

row,Sequence,PBM E-score
1,AGTTTCAG,-0.0512
2,AAGGACGC,-0.033
3,ATGAAAAA,0.278
4,CAGTTAAG,0.159
5,CCGGACCC,-0.278
6,ACGGCTAC,0.0443
7,TGCTATAA,0.0392
8,AATAAATT,0.186
9,ACATGCGC,0.126
10,AAGGGGAC,-0.164
11,ATCTACAA,0.0239
12,ACGCGCTC,-0.122
13,GTAATCTA,0.319
14,CACCATGG,-0.217
15,CCCTGTCG,-0.125
16,ATCAGGTA,0.0409
17,AGCCTAAA,0.0279
18,CACATGCA,0.0846
19,AAGTGGAC,-0.033
20,ATAGTGAG,0.0924
21,ATAGAGAC,0.0837
22,ATACAGAC,0.14
23,GTAAGTAA,0.183
24,CGAGTAGC,-0.0161
25,GTAGATCA,0.0396

row,Sequence,PBM E-score
1,GAGATAAC,0.145
2,ACTTAACC,0.0147
3,GAGCTCCC,-0.266
4,ATCAGGAG,-0.00138
5,AGCGCCAC,-0.208
6,AAAAGATC,0.0425
7,TGAAGTAA,0.0993
8,TACCTGGA,0.0806
9,CTTATTCC,0.109
10,AGCTTCAC,-0.0982
11,CGGCGACC,-0.246
12,AGGATTAG,0.00983
13,AAGGTGCG,-0.131
14,GCTGTACC,-0.157
15,CCGGGACA,0.0188
16,GGTCGTAA,0.0204
17,ACTCTCTG,0.051
18,ATTTGTTC,0.321
19,CGCACGCC,-0.0748
20,CGGAATGC,0.0497
21,ACGTCACG,0.0608
22,AATGGCCC,-0.282
23,AGCTTACC,0.048
24,CCATCATA,0.083
25,GAGGTGAC,0.0812

row,Sequence,PBM E-score
1,GAGTGTCC,-0.0229
2,AATAACCT,0.139
3,AGGCATAC,0.09
4,ACATTCAA,0.0532
5,ACTCAGAA,0.165
6,AGGTTAAT,0.0553
7,CAGACCTG,-0.0275
8,CTTATCTC,0.0941
9,AACGAGGG,-0.0762
10,GAGACAAC,0.0388
11,AAAGCAGT,0.122
12,AAACAAGC,0.0955
13,AACGGTCC,-0.258
14,ACCTGCCC,-0.168
15,AATGCCAA,0.0604
16,CGCTCACC,-0.0419
17,GCTATACC,0.0197
18,AGCACCTG,-0.102
19,CGCACCGC,-0.16
20,ATCGAGGA,0.0193
21,ATGTATTA,0.178
22,GACATCGA,-0.169
23,GGCCCGAC,-0.177
24,AACTCTTA,-0.0791
25,GTTACGGA,-0.0561

# In a second layout: entries from further up
row | Sequence | PBM E-score
20 | CGGAATGC | 0.0497
21 | ACGTCACG | 0.0608
22 | AATGGCCC | -0.282
23 | AGCTTACC | 0.048
24 | CCATCATA | 0.083

# Remaining list, next part

row,Sequence,PBM E-score
1,TACTCGCA,0.145
2,AAGCTACC,-0.0432
3,ACACTCAA,0.203
4,ATCACAAG,-0.0228
5,ACTGGAGA,-0.0462
6,ATGCGCGA,-0.0597
7,TCGATCCA,-0.0884
8,AAAGACCC,-0.119
9,ATCAGCAA,0.00676
10,ATGCTTGA,0.0303
11,CTATGAAC,0.0589
12,GAAGGCTA,-0.072
13,AGTAGTCA,-0.0313
14,CGGATCCA,0.13
15,GCTGAAAA,0.0826
16,AACACCAC,-0.0171
17,GGGTATCA,0.0467
18,ATCCGATA,0.0883
19,AAGTACAA,0.0986
20,CACGACAA,0.0588
21,CTCCCCTC,-0.147
22,AGGTTTAC,-0.0291
23,AGAGGACT,-0.225
24,GACGTGTA,-0.148
25,AACACGAA,0.21

row,Sequence,PBM E-score
1,AAGATGCG,0.143
2,CTCCCGGA,-0.225
3,CTCTTTTC,0.135
4,CTGAGAAA,0.0446
5,ACTCGCCC,-0.263
6,CCAACCTC,-0.0133
7,GGCTCAAA,-0.112
8,CAAGGATG,-0.0177
9,AGACCAAC,-0.0269
10,AAGAGCTA,0.0659
11,CTTGGCGA,-0.273
12,GCGATCAC,-0.123
13,AAAAATAT,0.342
14,AAGAAACC,0.106
15,ACACGTTC,0.0858
16,TGACATCA,0.148
17,AGCCATTA,0.0318
18,GTCAGCAA,0.154
19,ACCATCGA,-0.0152
20,AATGCCGG,0.0525
21,TAATTAGA,0.291
22,CTAAAGTC,-0.258
23,TATAACCA,0.269
24,ACTATTAC,0.149
25,CCTGGAGC,-0.069

row,Sequence,PBM E-score
1,CATAGGCC,-0.0909
2,GTTGCAAC,0.00267
3,CTACATAA,-0.0287
4,TAAGCGAA,0.0803
5,AATCTTGC,0.0407
6,ACATTTGA,0.122
7,ACGGCCGG,-0.101
8,GGCCGGAC,-0.248
9,CGGGTGAA,0.0475
10,GCCAGCTA,-0.143
11,GAGAGAAA,0.0853
12,CCCGCGCG,0.154
13,GCTATTCA,0.0483
14,GGACCCAA,-0.179
15,TAACCGTA,0.0268
16,CGTCGCCA,0.00175
17,CTGCCTAC,-0.014
18,AGTCCGGG,-0.235
19,ATCCAGGG,-0.216
20,GCTTTAAC,0.191
21,ATAAATTG,0.312
22,ATTGATTG,0.216

# Some of the entries so far, with bars between the fields:
row | Sequence | PBM E-score
19 | CGCACCGC | -0.16
20 | ATCGAGGA | 0.0193
21 | ATGTATTA | 0.178
22 | GACATCGA | -0.169
23 | GGCCCGAC | -0.177
